Here are results for 71 compounds from the supplement of paper PMC8104966.

SMILES strings stand for the structures. The list shows a part of the results. This data set is noisy: repeats of one test often differ as much as different tests do.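 U2OS cells expressing ACE2 were combined with U2OS cells expressing full-length spike, and imaging quantified fusion as the fraction of nuclei displaying both cell types' fluorescent markers. Non-toxic compounds with a fusion z-score under -3, i.e., over three standard deviations below the plate's DMSO wells, are called inhibitory hits.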

The assay has as its system U2OS ACE2 x SARS-CoV-2 spike co-culture. The assay can be described thus: cell-cell fusion (fraction fused) z-score vs plate DMSO control; higher = more fusion. The note with it: 30 µM; 5 h; toxicity class: non-toxic, passed QC.
For the compound `CC(O)C(=O)[O-].[NH4+]` (stereo unspecified), the “cell-cell fusion (z-score)” value is inactive: 1.96.

Regarding `CCN(CC)S(=O)(=O)c1ccc(C(=O)O)cc1`, the “cell-cell fusion (z-score)” value was inactive: 1.48. Turning to `NC[C@H]1O[C@H](O[C@H]2[C@H](O)[C@@H](O[C@H]3O[C@H](CO)[C@@H](O)[C@H](N)[C@H]3O)[C@H](N)C[C@@H]2N)[C@H](N)C[C@@H]1O`, the “cell-cell fusion (z-score)” value was inactive: 4.42. Under `NC[C@H]1O[C@H](O[C@H]2[C@H](O)[C@@H](O[C@H]3O[C@H](CO)[C@@H](O)[C@H](N)[C@H]3O)[C@H](N)C[C@@H]2N)[C@H](N)C[C@@H]1O` [Tobramycin] stands inactive: 2.17; under `CN(C)CCOc1ccc(/C(=C(/CCCl)c2ccccc2)c2ccccc2)cc1.O=C(O)CC(O)(CC(=O)O)C(=O)O` [Toremifene citrate], inactive: -1.9; under `COc1ccc(/C=C/C(=O)c2cc(O)ccc2O)cc1`, inactive: 1.21. Under `CC(C)(S)[C@@H](N)C(=O)O` [d-penicillamin] stands inactive: 0.894; under `Nc1ncn([C@@H]2O[C@H](CO)[C@@H](O)[C@H]2O)c(=O)n1` [5-Azacytidine], inactive: 2.19. As for `CO[C@@H]1[C@@H](O[C@@H]2O[C@H](C)[C@@H](O[C@H]3C[C@@](C)(O)[C@H](O)[C@H](C)O3)[C@H](N(C)C)[C@H]2O)[C@@H](CC=O)C[C@@H](C)[C@@H](O[C@H]2CC[C@H](N(C)C)[C@@H](C)O2)/C=C/C=C/C[C@H](C)OC(=O)C[C@H]1O`, the “cell-cell fusion (z-score)” value was inactive: 3.62. Turning to `COc1cc(C(=O)O)cc(OC)c1O`, the “cell-cell fusion (z-score)” value is inactive: 2.41. The figure for `COCCOC(=O)C1=C(C)NC(C)=C(C(=O)OC(C)C)C1c1cccc([N+](=O)[O-])c1` (stereo unspecified) [Nimodipine] is inactive: 0.905; for `CC(=O)O[C@]1(C(C)=O)CC[C@H]2[C@@H]3C=C(Cl)C4=CC(=O)[C@@H]5C[C@@H]5[C@]4(C)[C@H]3CC[C@@]21C` [Cyproterone acetate] it is inactive: 2.73. The figure for `Nc1nc2c(ncn2COC(CO)CO)c(=O)[nH]1` [Ganciclovir] is inactive: 3.84. The figure for `COc1ccccc1N1CCN(CCN(C(=O)C2CCCCC2)c2ccccn2)CC1.O=C(O)/C=C\C(=O)O` is inactive: 1.82; for `O=C(O)/C=C\C(=O)O.c1ccc2nc(N3CCNCC3)ccc2c1` it is inactive: 4.41; for `C[C@@H]1CC[C@@]2(OC1)O[C@H]1CC3C4CC[C@H]5C[C@@H](O)CC[C@]5(C)C4CC[C@]3(C)[C@H]1[C@@H]2C` (stereo partly specified) it is inactive: 2.65. As to `Cc1cc(O)cc(C)c1Cl`, the “cell-cell fusion (z-score)” value was inactive: 0.227. The figure for `N[C@@H](Cc1ccc(O)c(O)c1)C(=O)O` [Levodopa] is inactive: 3.01. `CCn1cnc2c(Nc3cccc(Cl)c3)nc(N[C@@H]3CCCC[C@@H]3N)nc21.Cl`: the “cell-cell fusion (z-score)” value was inactive: 1.56. Under `COc1cc2nc(N(C)CCCNC(=O)C3CCCO3)nc(N)c2cc1OC.Cl` (stereo unspecified) [Alfuzosin hydrochloride] stands inactive: 1.66; under `O=C(O)Cc1c[nH]c2ccc(O)cc12` [5-Hydroxyindolacetic acid], inactive: 1.05. The figure for `C=C[C@@](C)(O)CCC1C(=C)C[C@H](OC(C)=O)C2C(C)(C)CCCC12C` (stereo partly specified) is inactive: 2.04; for `CCC[C@@H]1C[C@@H](C(=O)N[C@H]([C@H]2O[C@H](SC)[C@H](O)[C@@H](O)[C@H]2O)[C@H](C)O)N(C)C1.Cl` it is inactive: -1.11. The figure for `CC(C)(O)[C@@H]1[C@H]2OC(=O)[C@@H]1[C@]1(O)C[C@H]3O[C@]34C(=O)O[C@H]2[C@]14C` is inactive: 1.4; for `c1ccc(C(NCc2cccnc2)(c2ccccc2)c2ccccc2)cc1` it is inactive: 3.7. `COc1ccc(CNC(=O)Nc2ncc([N+](=O)[O-])s2)cc1`: the “cell-cell fusion (z-score)” value is inactive: 0.384. The figure for `CN(C)c1ccccc1CN1CCCN(Cc2ccccc2N(C)C)C1c1ccncc1` is inactive: 3.1; for `CNC(=O)[C@H]1O[C@@H](n2cnc3c(NCc4ccc(N)cc4)ncnc32)C(O)[C@H]1O` (stereo partly specified) it is inactive: 0.856. The figure for `NC(=O)COc1c(F)cc(SCCNS(=O)(=O)c2ccccc2)cc1F` is inactive: 0.0767. Under `O=c1cc(-c2ccccc2)oc2c(O)c(O)ccc12` stands inactive: 1.93.

With `CC(C)(C)NC(=O)N[C@H](C(=O)N1C[C@H]2[C@@H]([C@H]1C(=O)NC(CC1CCC1)C(=O)C(N)=O)C2(C)C)C(C)(C)C` (stereo partly specified) [Boceprevir], the “cell-cell fusion (z-score)” value is inactive: 0.875. The figure for `CO[C@H]1[C@H](O)[C@@H](O[C@H]2CC[C@]3(C=O)C4CC[C@]5(C)[C@@H](C6=CC(=O)OC6)CC[C@]5(O)C4CC[C@@H]3C2)O[C@@H](C)[C@@H]1O` (stereo partly specified) is inactive: 1.47.

Consider `Cc1ncc([N+](=O)[O-])n1CC(O)CCl` (stereo unspecified), for which the “cell-cell fusion (z-score)” value was inactive: 1.22. As for `O=S(=O)([O-])c1cc(N=C=S)ccc1/C=C/c1ccc(N=C=S)cc1S(=O)(=O)[O-].[Na+].[Na+]`, the “cell-cell fusion (z-score)” value was inactive: 0.793. The figure for `O=C1OCCN1/N=C/c1ccc([N+](=O)[O-])o1` is inactive: 0.847.

On to `CC(=O)C(C)=O` [2,3-Butanedione], for which the “cell-cell fusion (z-score)” value was inactive: 2.57.

Regarding `O=C(O)c1ccccc1` [Benzoic acid], the “cell-cell fusion (z-score)” value was inactive: 1.92.

Consider `COC1O[C@@H]2O[C@]3(C)CC[C@H]4[C@H](C)CC[C@@H]([C@H]1C)[C@@]24OO3` (stereo partly specified), for which the “cell-cell fusion (z-score)” value was inactive: 3.38.

With `O=C(/C=C/c1ccc(O)cc1)c1ccccc1O`, the “cell-cell fusion (z-score)” value was inactive: -0.575. Regarding `CC(C)(C)NC[C@H](O)COc1ccccc1C1CCCC1.O=S(=O)(O)O`, the “cell-cell fusion (z-score)” value is inactive: 1.75.

Turning to `Nc1ncnc2c1ncn2C1O[C@H](COP(=O)(O)O)[C@@H](O)[C@H]1O` (stereo partly specified), the “cell-cell fusion (z-score)” value was inactive: 1.98. The figure for `CNC(=O)c1ccccc1Sc1ccc2c(/C=C/c3ccccn3)n[nH]c2c1` [Axitinib] is inactive: 2.57; for `O=c1cc(-c2ccc(O)cc2)oc2cc(O)cc(O)c12` [Apigenin] it is inactive: -0.532. Under `COc1ccc(-c2cc(=O)c3cc(OC)ccc3o2)cc1` stands inactive: 2.69; under `Cc1cccc2c3c(ccc12)C1=C(C(=O)C3=O)C(C)CO1` (stereo unspecified), inactive: 1.97; under `COc1cc(N)c(Cl)cc1C(=O)OCCN1CCCCC1`, inactive: 2.62. Under `COc1c(-c2coc3cc4c(cc3c2=O)CC(O)C(C)(C)O4)ccc2c1C=CC(C)(C)O2` (stereo unspecified) stands active: -6.56; under `CC(C)c1cccc(C(C)C)c1O` [Propofol], inactive: 4.81. As to `CC(C)c1cccc(C(C)C)c1O`, the “cell-cell fusion (z-score)” value is inactive: 4.49.

With `CS(=O)(=O)c1cccc(CNc2nc(Nc3ccc4c(c3)CCC(=O)N4)ncc2C(F)(F)F)c1`, the “cell-cell fusion (z-score)” value is active: -4.86. The figure for `CC(=O)O[C@H]1CC[C@@]2(C)C(=CCC3C2CC[C@@]2(C)C3CC[C@@H]2C(C)CCCC(C)C)C1` (stereo partly specified) is inactive: 2.05; for `CC(=O)[C@H]1CCC2C3CC=C4C[C@@H](O)CC[C@]4(C)C3CC[C@@]21C` (stereo partly specified) it is inactive: 0.78; for `CCCc1c(-c2ccc(O)cc2)nn(-c2ccc(O)cc2)c1-c1ccc(O)cc1` [1,3,5-tris(4-hydroxyphenyl)-4-propyl-1H-pyrazole] it is inactive: 4.19. Under `CN1C(=O)CC[C@H]1c1cccnc1` stands inactive: 1.09; under `CNC(=O)c1ccc(C)c(-n2c(C)cc(OCc3ccc(F)cc3F)c(Br)c2=O)c1`, inactive: 1.42. Under `NS(=O)(=O)c1cccc2c1c([N+](=O)[O-])cc1nc([O-])c([O-])nc12.[Na+].[Na+]` [NBQX disodium] stands inactive: 3.1; under `O=C1C=CC(=O)C=C1` [p-Benzoquinone], inactive: 0.247. Turning to `CC(C)N(CCC(C(N)=O)(c1ccccc1)c1ccccn1)C(C)C` (stereo unspecified) [Disopyramide], the “cell-cell fusion (z-score)” value was inactive: 3.13. The figure for `CC(C)OC(=O)CCC/C=C\C[C@@H]1[C@@H](CCC(O)CCc2ccccc2)[C@H](O)C[C@@H]1O` (stereo partly specified) [Latanoprost] is inactive: -2.85; for `CN1CCN(C2Cc3ccccc3Sc3ccc(Cl)cc32)CC1.O=C(O)/C=C\C(=O)O` (racemic) [(±)-Octoclothepin maleate] it is inactive: 0.645; for `Cl.c1ccc(CN(CC2=NCCN2)c2ccccc2)cc1` [Antazoline hydrochloride] it is inactive: 2.86.

In the case of `Cc1ccnc(NS(=O)(=O)c2ccc(NC(=O)Nc3ccc(S(=O)(=O)Nc4nccc(C)n4)cc3)cc2)n1`, the “cell-cell fusion (z-score)” value was inactive: 1.5. The figure for `CC(=O)[C@@]1(O)CC[C@H]2[C@@H]3C[C@H](C)C4=CC(=O)CC[C@]4(C)[C@H]3CC[C@@]21C` [Medroxyprogesterone] is inactive: 1.95. The figure for `NC(=O)c1cnccn1` [Pyrazinamide] is inactive: 2.51; for `CC[C@@H](CO)NC(=O)[C@@H]1C=C2c3cccc4[nH]cc(c34)C[C@H]2N(C)C1.O=C(O)/C=C\C(=O)O` [Methylergonovine maleate] it is inactive: 0.996; for `COc1cnc(NS(=O)(=O)c2ccc(N)cc2)nc1` [Sulfameter] it is inactive: 3.8. The figure for `C[C@]12CC[C@@H]3c4ccc(O)cc4C[C@@H](CCCCCCCCCS(=O)CCCC(F)(F)C(F)(F)F)[C@H]3[C@@H]1CC[C@H]2O` (stereo partly specified) is inactive: 2.11; for `C#CCN(C)[C@H](C)Cc1ccccc1.Cl` [Selegiline hydrochloride] it is inactive: 0.826; for `CC1(C)C(C(=O)O)N2C(=O)C[C@H]2S1(=O)=O` (stereo partly specified) it is inactive: 0.819. Take `Cl.Cl.Clc1ccc(Nc2nnc(Cc3ccncc3)c3ccccc23)cc1` [Vatalanib dihydrochloride (PTK787)]: the “cell-cell fusion (z-score)” value was inactive: 1.09. Under `Cl.Cl.Clc1ccc(Nc2nnc(Cc3ccncc3)c3ccccc23)cc1` [Vatalanib (PTK787) 2HCl] stands inactive: 0.344.
